Measured values published in PubChem BioAssay AID488840 (Broad Institute, 2010).
Out of some 1,400 compounds screened, about 45 (3%) were called active.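 Rule for the calls: active = half-maximal dose of signal decrease from fit no higher than ten times the top valid tested dose; inconclusive = fit invalid, or curve flat with 30 to 70% inhibition; inactive = the rest.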 The list shows a part of the results. Potency and affinity values are given separately.

Protein sequences, listed by entry. Tags and fused reporters are not part of them. Lines headed by an entry give the natural chain unless they say otherwise; changes in a name come on top.
UniProt O75164: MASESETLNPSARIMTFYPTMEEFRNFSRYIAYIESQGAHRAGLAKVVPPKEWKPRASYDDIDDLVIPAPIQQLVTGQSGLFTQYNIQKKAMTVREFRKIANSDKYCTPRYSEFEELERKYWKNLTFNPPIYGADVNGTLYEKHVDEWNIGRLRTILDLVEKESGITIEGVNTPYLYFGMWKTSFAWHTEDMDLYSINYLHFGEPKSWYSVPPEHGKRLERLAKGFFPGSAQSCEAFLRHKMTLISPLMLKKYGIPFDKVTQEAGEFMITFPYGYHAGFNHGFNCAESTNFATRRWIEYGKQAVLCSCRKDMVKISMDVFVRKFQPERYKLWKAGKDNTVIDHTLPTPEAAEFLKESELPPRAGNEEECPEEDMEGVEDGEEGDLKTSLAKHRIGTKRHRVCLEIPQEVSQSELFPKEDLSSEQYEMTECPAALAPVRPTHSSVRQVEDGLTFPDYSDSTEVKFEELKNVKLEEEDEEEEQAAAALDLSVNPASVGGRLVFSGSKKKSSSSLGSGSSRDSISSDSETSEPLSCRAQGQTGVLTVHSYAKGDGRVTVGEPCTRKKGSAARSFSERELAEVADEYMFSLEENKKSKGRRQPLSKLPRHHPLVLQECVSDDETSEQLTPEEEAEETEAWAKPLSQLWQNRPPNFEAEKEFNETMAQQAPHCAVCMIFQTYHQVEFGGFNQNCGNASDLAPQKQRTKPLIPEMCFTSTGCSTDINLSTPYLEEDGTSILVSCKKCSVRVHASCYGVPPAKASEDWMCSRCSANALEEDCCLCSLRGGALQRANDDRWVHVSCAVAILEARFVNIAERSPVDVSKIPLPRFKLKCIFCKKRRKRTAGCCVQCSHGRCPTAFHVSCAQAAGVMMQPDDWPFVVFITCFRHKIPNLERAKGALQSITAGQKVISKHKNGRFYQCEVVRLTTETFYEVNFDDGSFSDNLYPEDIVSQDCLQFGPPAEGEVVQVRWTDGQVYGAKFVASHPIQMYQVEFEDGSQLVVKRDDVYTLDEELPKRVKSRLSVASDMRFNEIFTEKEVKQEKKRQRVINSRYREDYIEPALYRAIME

Molecular target: Lysine-specific demethylase 4A (Homo sapiens) (UniProt O75164)
Test: inhibition of JMJD2A H3K9me3 demethylation – biochemical, DELFIA europium, cherry-picked samples, selectivity assay for GASC-1 inhibitor project, dose response (AID 488840);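 note: europium signal reports the dimethyl H3K9 product detected by antibody so inhibitors lower it; 0% = median of neutral control wells and -100% = median of positive control wells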
Settings: GST-JMJD2A(1-420) H3K9me3 demethylation; at 6 µM (top of the series) unless noted

Activity change, negative = inhibition, inactive:
Cc1ccc(S(=O)(=O)N2[C@@H](c3ccc(C#N)cc3)C(C(=O)O)=C[C@H]2C(C)(C)C)cc1 -3.84%
CC(=O)c1cccc(NC(=S)NC(=O)CC(C)C)c1 1%
CCOC(=O)C(C)Oc1ccsc1C(=O)OC (stereo not given) 0.419%
COc1ccc(C(=O)O/N=C(\C)c2cnccn2)cc1 -3.82%
Cc1ccc(S(=O)(=O)NCCC(=O)N2CCN(c3cccc(Cl)c3)CC2)cc1C -0.299%
COC(=O)c1sc(NC(=O)c2cc3c(s2)CCCC3)nc1C 2.35%
CCNc1ccc(S(=O)(=O)N(C)C)cc1NCC(=O)Nc1c(F)cccc1F 2.81%
CN(C)c1ccc(NC(=S)c2ccccn2)cc1 0.977%
CCSc1nnc(-c2cccc(S(=O)(=O)N(CC)CC)c2)n1Cc1ccccc1 -3.54%
Cc1nc2sc(C(c3cccc(F)c3)N3CCOCC3)c(O)n2n1 (stereo not given) 4.91%
O=C(NNC(=O)c1cccs1)c1ccc([N+](=O)[O-])cc1 -5.67%
Nc1ccc2oc(-c3ccccn3)nc2c1 0.514%
O=C(Cc1ccccc1)NC1(O)C(=O)c2ccccc2C1=O -4.47%
CN1CCN(CC(=O)Nc2ccc(S(=O)(=O)N(C)C)cc2)CC1 5.36%
CCCCOC(=O)Cn1cnc2ccc(Br)cc2c1=O -0.0666%
O=C(N/N=C/c1ccc(O)cc1)c1cncc(Br)c1 -5.25%
COC(=O)c1cccc(C#CC(NP(=O)(c2ccccc2)c2ccccc2)c2ccccc2)c1 (stereo not given) 3.94%
Cc1nn(-c2cccc(C(=O)O)c2)c(C)c1Oc1ccccc1O -1.43%
CCN(C[C@H]1N[C@@](CC)(C(=O)OC)[C@H]2C(=O)N(Cc3ccccc3)C(=O)[C@@H]12)S(=O)(=O)c1ccc(C(C)(C)C)cc1 -0.818%
COc1ccc(/C=N/N(C)c2cc(=O)n(C)c(=O)[nH]2)cc1OC 8.31%
CC1CN(Cc2c(O)ccc3c2oc(=O)c2ccccc23)CC(C)O1 (stereo not given) -17%
CC(C)NC(=O)Nc1ccc2c(c1)C(=O)N([C@H](C)CO)C[C@@H](C)[C@@H](CN(C)C(=O)NC1CCCCC1)O2 0.568%
CCOC(=O)Nc1cc(C)c(Cl)cc1OC -3.4%
NC(=O)C1CCN(c2nc(-c3ccccc3Br)cs2)CC1 -1.18%
COC(=O)c1ccc(-c2sc3nc(N4CCOCC4)c4c(c3c2N)CC(C)(C)OC4)o1 -5.55%
CCc1ncc(C)[nH]1 -14.1%
Cn1nc(N)nc1N1CCN(c2ccc(F)cc2)CC1 0.469%
Cc1noc(C)c1NC(=O)N(C)C[C@H]1Oc2ccc(NS(=O)(=O)c3ccccc3)cc2C(=O)N([C@H](C)CO)C[C@@H]1C 9.15%
Cc1ccc(CNC(=O)[C@@H](NC(=O)Cc2ccccc2)C(C)C)cc1 2.23%
COc1ccccc1CCNC(=O)c1ccc(C)o1 -2.2%
O=C(Nc1nc2ccccc2n1CCN1CCCC1)C1CCCCC1 5.58%
CCOC(=O)c1cc2n(n1)C(C(F)(F)F)CC(C)N2 (stereo not given) 7.37%
Nc1c(C(=O)OCC2CCCO2)c2nc3ccccc3nc2n1C1CCCC1 (stereo not given) 0.956%
CCN(C[C@H]1N[C@@](C)(C(=O)OC)[C@H]2C(=O)N(C)C(=O)[C@@H]12)C(=O)Nc1ccccc1 3.6%
O=C(Cn1c(NCCCO)nc2ccccc21)c1ccc(Br)cc1 -8.01%
O=C(NCc1nnc(SCC(=O)N2CCCC2)o1)c1c(F)cccc1Cl 1.02%
CCOc1ccccc1Nc1ncnc2ccccc12 0.0723%
CCOC(=O)c1sc(Nc2nc(OC)cc(OC)n2)nc1C 2.08%
CCOc1ccc2nc(NC(=O)CS(=O)(=O)c3ccc(C)cc3)sc2c1 3.31%
COc1cc(Cl)c(NC2=CC(=O)C(=O)c3ccccc32)c(OC)c1 1.31%
CC(C)(O)[C@H](O)Cc1cc2ccc(=O)oc2cc1O[C@@H]1O[C@H](CO)[C@@H](O)[C@H](O)[C@H]1O -0.509%
COc1ccc(/C=C/C(=O)OCC(=O)c2ccc[nH]2)cc1 -3.39%
O=C(NC1CC2CCC1C2)C1COc2ccccc2O1 (stereo not given) -5.22%
COc1ccc(NC(=S)NNC(=O)c2ccc(S(=O)(=O)N3CCOCC3)cc2)cc1 1.42%
CC(=O)C[C@@H](O)CC(=O)[C@H]1OC(=O)CCCCCc2ccccc21 -3.43%
O=S(=O)(Nc1ccccc1F)c1cccc(NC(=S)NCCN2CCOCC2)c1 -1.8%
COc1ccc2cc3cc(C(=O)N4CCN(C5CCCCC5)CC4)oc3nc2c1 0.0255%
COc1ccc(CCNC(=O)c2ccccc2Cl)cc1OC 0.305%
O=C(C1CCC1)N(CCc1ccccc1)Cc1nc2ccccc2c(=O)[nH]1 0.0474%
Cc1ccc(C2=[N+]([O-])C(C)(C)CC2)cc1 -3.27%
NC(=O)C1CCN(C(=O)CCSc2ccccc2)CC1 1.41%
O=C(NCc1cccc(Cl)c1)c1ccc2c(c1)OCO2 3.27%
COc1ccc(/C(O)=C/Sc2nnc(Cc3ccccc3)o2)cc1 4.63%
O=C(NNC(=O)C1CCN(S(=O)(=O)c2ccccc2)CC1)c1ccccc1O 0.221%
Cc1cccc(NC(=S)N2CCN(Cc3ccc4c(c3)OCO4)CC2)c1C -13%
CCOc1ccc(C(=S)NC2CCCCC2)cc1 -4.07%
Cc1cc2ccccn2c1C(=O)c1ccncc1 7.29%
O=c1ccc2cc3c([nH]c4ccc(Br)cc43)oc-2c1O -19.4%
CC(C)(C)c1ccc(C(=O)OCc2c(-c3ccccc3)ncc3ccccc23)cc1 0.675%
Cc1ccc(Cl)cc1N1CCN(C(=O)c2ccc(NS(=O)(=O)c3c(C)noc3C)cc2)CC1 -2.15%
CCN(CC)C(=O)C1c2ccccc2Oc2ccccc21 -6.17%
O=C1c2ccccc2C(=O)C12OC2c1cccc2ccccc12 (stereo not given) -10.6%
CCn1c(CNC(=O)Cc2ccc(OC)cc2)nnc1SCC(=O)NC1CCCCC1 -4.8%
O=C(CSc1nnc(CNC(=O)c2c(F)cccc2Cl)o1)Nc1ccc2c(c1)OCCO2 0.72%
Cc1ccc(C(c2sc3nc(C)nn3c2O)N2CCN(c3ccccc3F)CC2)cc1 (stereo not given) -3.81%
N/C(=N\S(=O)(=O)c1cc(C(F)(F)F)cc(C(F)(F)F)c1)c1ccccc1 -1.03%
CC1CCN(C(=S)NC(=O)c2cccc([N+](=O)[O-])c2)CC1 -0.366%
COc1ccc(NC(=O)N(C)C[C@H]2Oc3c(NC(=O)C4CC4)cccc3C(=O)N([C@H](C)CO)C[C@@H]2C)cc1 3.75%
CC(C)C[C@@H]1CN=C(N)N1C[C@@H]1CCCN1C[C@H](C)N1C[C@@H](Cc2ccccc2)N(CCc2ccc(Cl)c(Cl)c2)C1=N 25.9%
Cc1noc(C)c1S(=O)(=O)N(C)C[C@H]1Oc2c(NC(=O)Nc3ccccc3)cccc2C(=O)N([C@H](C)CO)C[C@@H]1C 3.34%
Cc1ccc(Nc2nnc(SCC(=O)N(C)C3CCS(=O)(=O)C3)s2)cc1 (stereo not given) 3.34%
Cc1ccc(-c2csc3nc4cc(C(=O)NC5CCC(O)CC5)ccc4c(=O)n23)cc1 (stereo not given) -4.49%
COc1ccc(CCNC(=O)CSCc2n[nH]c(=O)[nH]2)cc1OC -4.25%
O=C1NCCC/C1=N/Nc1ccc(F)cc1 0.703%
COc1ccc(OC)c(/C=C2\SC(=S)N(Cc3cccnc3)C2=O)c1 0.643%
Cc1cc(=O)[nH]c(CN2CCOCC2)n1 0.421%
Cc1ccc(C(=O)Nc2sc3c(c2C(=O)O)CCCC3)o1 0.458%
COc1ccc(/C(C)=N/Nc2nccnc2Cl)cc1 1.18%
Cc1cccc(NS(=O)(=O)c2cccc3nsnc23)c1 1.62%
C[C@H](CO)N1C[C@H](C)[C@@H](CN(C)S(=O)(=O)c2ccccc2)Oc2c(NC(=O)CCC(F)(F)F)cccc2C1=O -0.45%
CN(C(=O)COc1ccccc1)c1nnc(-c2ccncc2)s1 -1.74%
O=c1ccc(=O)n2n1CC(O)C2 2.05%
C#CCOCCOCCOCCNc1nc(N2CCN(C(=O)[C@H](CCC(=O)O)n3cc([C@@H](N)CCCCN)nn3)CC2)nc(N2CCN(C(=O)[C@H](CCC(=O)O)n3cc([C@@H](N)CCCCN)nn3)CC2)n1 2.24%
CN(c1cccc(Cl)c1)S(=O)(=O)c1cccc(C(=O)Nc2ccc3c(c2)CCC3)c1 8.71%
C=CCNC(=O)c1ccc(S(=O)(=O)CC)c(Cl)c1Cl -3.08%
COCCCn1c(SCC(=O)NCc2ccco2)nc2sc3c(c2c1=O)CCC3 -0.648%
COCCCNC(=O)c1ccc2c(c1)CCN2S(C)(=O)=O 3.39%
Cc1cccc(NC(=O)C2CCN(S(=O)(=O)c3cccc4nsnc34)CC2)n1 1.1%
CCCn1nnnc1SCC(=O)NNC(=O)c1ccco1 2.08%
S=c1[nH]nc(COc2ccccc2)n1/N=C/c1ccccn1 2.51%

Quoted from the entries so far, two compounds:
Activity change, negative = inhibition, inactive:
CCOc1ccc2nc(NC(=O)CS(=O)(=O)c3ccc(C)cc3)sc2c1 3.31%
COc1cc(Cl)c(NC2=CC(=O)C(=O)c3ccccc32)c(OC)c1 1.31%

Quoted at random: two entries already listed
Activity change, negative = inhibition, inactive:
CCOC(=O)C(C)Oc1ccsc1C(=O)OC (stereo not given) 0.419%
Cc1cc(=O)[nH]c(CN2CCOCC2)n1 0.421%

Sorted by length of the SMILES (smallest number first): part of the list above
Activity change, negative = inhibition, inactive:
NC(=O)C1CCN(c2nc(-c3ccccc3Br)cs2)CC1 -1.18%
Cc1cccc(NC(=O)C2CCN(S(=O)(=O)c3cccc4nsnc34)CC2)n1 1.1%
CC(C)(C)c1ccc(C(=O)OCc2c(-c3ccccc3)ncc3ccccc23)cc1 0.675%
